Measurements as given in paper PMC13546849.
Results are given in words; binding and its absence hold for the method and conditions named. In cells and extracts the contact can be indirect. Binding calls can cover weak binding; strength is not graded here. For some assays here: Sequences can lack the tags named with a protein.

T1: Vesicular monoamine transporter 1 (VMAT1), as in the co-immunoprecipitation from PC12 cells (UniProt Q01818)
T1 sequence: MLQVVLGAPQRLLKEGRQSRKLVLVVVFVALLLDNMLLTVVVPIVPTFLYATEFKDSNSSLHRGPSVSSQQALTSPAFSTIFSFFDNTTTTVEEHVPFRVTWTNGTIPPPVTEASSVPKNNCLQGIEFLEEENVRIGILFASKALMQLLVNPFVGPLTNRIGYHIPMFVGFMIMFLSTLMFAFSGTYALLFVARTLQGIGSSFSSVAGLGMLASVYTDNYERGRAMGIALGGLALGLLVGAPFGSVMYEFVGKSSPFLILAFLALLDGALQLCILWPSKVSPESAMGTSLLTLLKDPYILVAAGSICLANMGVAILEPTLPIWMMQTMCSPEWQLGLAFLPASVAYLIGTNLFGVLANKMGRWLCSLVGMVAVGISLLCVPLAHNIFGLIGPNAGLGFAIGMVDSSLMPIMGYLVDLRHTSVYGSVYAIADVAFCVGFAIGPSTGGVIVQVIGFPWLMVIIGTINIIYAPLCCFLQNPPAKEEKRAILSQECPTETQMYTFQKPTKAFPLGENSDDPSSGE

B1: VMAT1-GFP (vesicular monoamine transporter 1 with GFP) (protein, UniProt Q01818 1-521)
chain: T1 sequence

Legend:
[1] = molecular target: T1, Vesicular monoamine transporter 1 (VMAT1), as in the co-immunoprecipitation from PC12 cells; test: co-IP; native co-immunoprecipitation from PC12 homogenate; beads washed four times with PBS with 1% Triton X-100; soft elution (0.2% SDS, 0.1% Tween-20, 50 mM Tris-HCl pH 8.0); IgG IP as control; immunoblot
[2] = molecular target: AP-3 δ subunit (δ1 subunit of the AP-3 complex) (rat (endogenous in PC12)); test: proximity ligation; Duolink In Situ Red kit (mouse/rabbit) on fixed (4% PFA), permeabilised (0.2% Triton X-100) WT PC12 cells; primary antibodies to AP-3δ and to SYT1, DLK1 or GFP (for VMAT1-GFP); no-antibody control showed no PLA signal

Molecule | binding [1] | binding [2]
AP-3 μ subunit (rat (endogenous in PC12)) | binds | –
B1 | – | binds
